Reference: patent US11034935B2, “Liver organoid, uses thereof and culture method for obtaining them” (Koninklijke Nederlandse Akademie van Wetenschappen, priority 2010, dated 2021)
For at least one compound, name, drawing or mass did not settle the structure.

Tested on: liver organoid cultures
Experiment: Hepatocyte differentiation of liver organoid cultures by added compounds, RT-PCR of hepatocyte markers
Details: compound added to EGF+FGF10 or HGF condition; albumin expression

Structure (SMILES)	Result Alb
Cc1nc2sccn2c(=O)c1CCN1CCC(=C(c2ccccc2)c2ccc(F)cc2)CC1 [R 59022]	+
CC(/C=C/C(=O)NO)=C\[C@@H](C)C(=O)c1ccc(N(C)C)cc1 [TSA]	+
